Results are given in words; binding and its absence hold for the method and conditions named. Some binding calls cover weakened binding; strength is not graded here. Where no end group is shown, it is not given here. The star is where a group is joined. TAMRA = 5-carboxytetramethylrhodamine, CN(C)c1ccc2c(-c3ccc(C(=O)*)cc3C(=O)[O-])c3ccc(=[N+](C)C)cc-3oc2c1
T1: MCL-1 (mouse, residues 152-308) (mouse)
T1 construct: remnant of thrombin cleavage at the N-terminus of MCL-1; MCL-1, mouse, residues 152-308, UniProt P97287; source: E. coli C41 pLysS, purified (Ni2+ agarose, thrombin cleavage, ion exchange, Superdex G75 gel filtration); not shown: His6, N-terminal, cleaved
T1 chain: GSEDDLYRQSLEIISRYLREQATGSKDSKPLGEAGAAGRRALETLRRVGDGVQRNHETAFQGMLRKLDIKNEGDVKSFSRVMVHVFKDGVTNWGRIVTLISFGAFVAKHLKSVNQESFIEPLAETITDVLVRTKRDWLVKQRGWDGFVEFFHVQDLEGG

T2: A1 (mouse, residues 1-152) (mouse) (UniProt Q07440)
T2 sequence: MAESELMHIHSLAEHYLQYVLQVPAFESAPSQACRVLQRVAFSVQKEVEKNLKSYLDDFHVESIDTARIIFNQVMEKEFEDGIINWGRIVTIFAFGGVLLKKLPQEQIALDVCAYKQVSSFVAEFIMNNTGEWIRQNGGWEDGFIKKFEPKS


Key:
[1] = target: T1, MCL-1 (mouse, residues 152-308); assay: stopped-flow fluorescence kinetics; association; TAMRA-labelled peptide with folded partner at least 10-fold higher (pseudo-first-order); kon from the gradient of kobs versus partner concentration; 25 °C; 50 mM sodium phosphate, 0.05% (v/v) Tween 20, pH 7.0; both purified
[2] = target: T2, A1 (mouse, residues 1-152) (mouse); assay: dissociation kinetics by competition (fluorescence); preformed complex of TAMRA peptide and partner protein mixed with various concentrations of unlabeled PUMA peptide as competitor; stopped-flow or spectrophotometer; 25 °C; 50 mM sodium phosphate, 0.05% (v/v) Tween 20, pH 7.0; both purified
[3] = target: T2, A1 (mouse, residues 1-152) (mouse); assay: stopped-flow fluorescence kinetics; association kinetics by TAMRA fluorescence, pseudo-first-order, folded partner at least 10-fold over the peptide; 25 °C; 50 mM sodium phosphate, 0.05% (v/v) Tween 20, pH 7.0; Kd calculated as koff/kon with koff from the dissociation kinetics; both purified
[4] = target: T2, A1 (mouse, residues 1-152) (mouse); assay: as above; remark: listed apart in the source

| Binder | binding [1] | binding [2] | binding [3] | binding [4] |
| --- | --- | --- | --- | --- |
| RVEEEEWAREIGAQLRRAADDLNAQYERRRQEEQH (5-carboxytetramethylrhodamine (TAMRA) conjugated at the N terminus) [PUMA peptide (mouse, residues 127-161, M144A, used as wild type), TAMRA-labelled] | binds | – | – | – |
| RVEEEEWAREIGAQLRRAADDLNAQYERRRQEEQH (peptide, UniProt Q99ML1 127-161, 5-carboxytetramethylrhodamine (TAMRA) conjugated at the N terminus) [PUMA peptide (mouse, residues 127-161, M144A), N-terminal TAMRA] | – | binds | binds | – |
| {TAMRA}-SESQEEIIHNIARHLAQIGDEMDHNIQPTLVRQLA (peptide, UniProt P70444 76-110, looked up, BID, mouse, residues 76-110, UniProt P70444; source: synthetic peptide (synthesized by Biomatik)) [BID peptide (mouse, residues 76-110), N-terminal TAMRA] | – | binds | – | binds |

Source: publication PMC6016464, “Folding and binding pathways of BH3-only proteins are encoded within their intrinsically disordered sequence, not templated by partner proteins” (The Journal of Biological Chemistry, 2018)
